PMC4650443
These are yes or no findings as the source states them, for the method shown. For some of these results: Binding seen in cells or lysates may run through a third protein. Some results given as binding are weak or reduced against the parent protein; the word gives no strength.

Tests used:
Myc-tagged cyclin E = Myc-tagged cyclin E (UniProt P24864); assay: co-IP; MCF-7 transfected with two tagged partners with or without DEC1 (GFP-DEC1 or Flag-DEC1) co-expressed; cell extract immunoprecipitated with anti-Myc antibody, probed with anti-Flag, anti-GFP or anti-HA; Figure 3g,h: MG132 8 h, with serum or serum-free
[1] = target: endogenous cyclin E (human (endogenous in MCF-7)) (UniProt P24864); assay: co-IP; MCF-7 cell extract immunoprecipitated with anti-cyclin E antibody (anti-IgG as control) and protein A-Sepharose, 4 °C, 24 h; endogenous proteins detected by blot; cells with or without serum; Figure 3i,j: cells transfected with GFP-DEC1 or empty vector, MG132 8 h; Figure 6c: cells transfected with Flag-DEC1 or empty vector, at times after release from nocodazole
Flag-DEC1 = Flag-DEC1 (UniProt O14503); assay: co-IP; MCF-7 transfected with tagged proteins; cell extract (50 mM Tris-HCl pH 8.0, 150 mM NaCl, 0.1% SDS, 1% NP-40, 0.5% sodium deoxycholate) with anti-Flag or anti-HA antibody and protein A-Sepharose, 4 °C, 24 h; washes with 500 mM NaCl; cells with serum or serum-starved 24 h; Figure 4j: at times after release from nocodazole
GST-tagged cyclin E = GST-tagged cyclin E (UniProt P24864); assay: pull-down; purified GST or GST-tagged cyclin E immobilised on glutathione-agarose (Pierce spin column); MCF-7 cell extract with DNase, 4 °C, at least 6 h; five washes; eluate probed with anti-DEC1 and anti-GST; only the target purified
pBIND-cyclin E = pBIND-cyclin E (UniProt P24864); assay: two-hybrid; CheckMate mammalian two-hybrid system (Promega) in MCF-7 cells: pBIND and pACT fusions with pG5-luc, luciferase read-out; with or without serum starvation; Figures 5c and 6d also with Flag-DEC1 co-expressed, Figure 6d in synchronised cells

Substance	binding [1]	binding (Flag-DEC1)	other results
endogenous DEC1 (from UniProt O14503 1-412)	binds		binding (GST-tagged cyclin E): binds
endogenous cyclin E (from UniProt P24864 1-410)		binds	
pACT-DEC1 (from UniProt O14503 1-412)			binding (pBIND-cyclin E): binds

Continued, in another order:

binding [1]	binding (Flag-DEC1)	Substance	other results
binds		GFP-DEC1 (from UniProt O14503 1-412)	binding (Myc-tagged cyclin E): binds
	binds	Myc-tagged cyclin E (from UniProt P24864-3 1-395)	
